Results taken from US6984719B1, “Peptide antagonists of prostaglandin F2α receptor” (Hospital Sainte-Justine, priority 1998, dated 2006).
At least one peptide structure holds a part that was inferred or is arguable (an end, a ring closure or a residue). Ends that are not written are not given here.

The chains behind the UniProt entries cited, without tags or fusion partners. Where a name states a change or a piece, a line headed by the entry shows the natural chain unless it says otherwise. Residues count along the entry.
UniProt C6GAG8, 1-362: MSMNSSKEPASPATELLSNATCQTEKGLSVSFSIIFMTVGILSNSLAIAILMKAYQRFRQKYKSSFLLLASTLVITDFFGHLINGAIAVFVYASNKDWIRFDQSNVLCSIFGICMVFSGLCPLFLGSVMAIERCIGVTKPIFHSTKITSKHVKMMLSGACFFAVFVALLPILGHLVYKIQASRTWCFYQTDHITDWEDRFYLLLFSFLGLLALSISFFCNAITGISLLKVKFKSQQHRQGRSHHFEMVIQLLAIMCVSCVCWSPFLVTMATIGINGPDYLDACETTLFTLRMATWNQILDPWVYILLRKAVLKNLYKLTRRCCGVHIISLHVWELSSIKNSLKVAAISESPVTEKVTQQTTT
UniProt P37289: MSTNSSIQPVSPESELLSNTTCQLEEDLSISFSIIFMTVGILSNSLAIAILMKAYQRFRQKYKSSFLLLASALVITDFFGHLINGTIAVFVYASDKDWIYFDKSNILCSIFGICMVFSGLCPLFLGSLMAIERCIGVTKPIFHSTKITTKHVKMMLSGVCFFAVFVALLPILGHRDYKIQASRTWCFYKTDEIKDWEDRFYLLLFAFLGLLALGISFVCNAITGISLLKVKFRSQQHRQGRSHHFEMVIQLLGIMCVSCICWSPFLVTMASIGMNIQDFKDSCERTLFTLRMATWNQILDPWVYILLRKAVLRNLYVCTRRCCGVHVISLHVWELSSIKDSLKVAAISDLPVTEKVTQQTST
UniProt P43088: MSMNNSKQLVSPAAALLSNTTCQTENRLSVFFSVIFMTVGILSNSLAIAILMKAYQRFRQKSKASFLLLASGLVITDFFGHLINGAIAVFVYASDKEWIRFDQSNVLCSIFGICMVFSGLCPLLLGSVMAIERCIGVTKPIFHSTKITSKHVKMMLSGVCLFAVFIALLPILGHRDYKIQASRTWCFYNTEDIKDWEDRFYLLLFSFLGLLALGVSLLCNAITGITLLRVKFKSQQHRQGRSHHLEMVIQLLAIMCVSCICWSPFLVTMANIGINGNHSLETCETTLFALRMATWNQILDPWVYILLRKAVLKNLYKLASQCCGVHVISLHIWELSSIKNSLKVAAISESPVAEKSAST

What was measured:
[1] = target: T1, FP receptor (Sus scrofa, UniProt C6GAG8); test: Porcine eyecup model of ex vivo vasomotricity assay, PGF2α-induced constriction of retinal microvessels; design: species or system pig
T1 construct: from tissue; host or cells: eyecup / retinal microvessels of newborn pigs pretreated with ibuprofen
Text: In order to see if the peptides could inhibit FP function using an ex vivo model, we chose porcine eyecup model, an ex vivo assay of vascular constriction in porcine retinas which we previously described and validated (Li et al., 1996 J. Pharmacol. Expt. Therapeut. 278: 370–377; Li et al., 1997 Am. J. Physiol. 273: R1283–90; Abran et al., 1997 Am. J. Physiol. 272: R995–1001). Since FP receptor densities in newborn vasculature are minimal due to down regulation by high levels of circulating prostaglandins in the perinatal period, the newborn pigs were treated with a prostaglandin synthetase blocker, ibuprofen (30 mg/Kg of bodyweight/8 h for 24 h) to increase the density of the receptors as well as their vasomotor effects. By inhibiting circulating prostaglandins, we were able to show potent inhibition of FP receptor-mediated second messenger synthesis as well as FP-mediated vascular constriction in this eyecup model. […]
(§1) Cumulative concentration-responses of PGF2α, and TxA2 mimetic, U46619, (10^−10 to 10^−5 M) curves were constructed separately. To assess the reversibility of the antagonists, the eyecups were thoroughly washed (which would wash away the peptide) with incubation medium and concentration response curves for PGF2α were determined. The outer vessel diameter was recorded with a video camera mounted on a dissecting microscope (Zeiss M 400™) and the responses were quantified by a digital image analyzer (Sigma Scan Software, Jandel Scientific, Corte Madera, Calif.). Vascular diameter was recorded before and 10 min following the topical application of the agent.
^1Percent vasomotor response in the presence of 100 μM peptide is calculated as percent change in average vascular diameter produced by 10^−7 M PGF2α to the eyecup in the presence of the peptide compared to maximal constriction observed in the absence of the peptide.
^2Percent inhibition produced by each peptide is calculated as (100-percent vasomotor response). […]

[2] = target: T2, FP receptor (Bos taurus, UniProt P37289); test: Bovine uterine strip ex vivo basal contraction assay
T2 construct: from tissue; host or cells: uterine myometrial strips of non-pregnant adult bovine animals

[3] = tested on: FP receptor; test: Porcine uterine strip ex vivo contraction assay (basal and PGF2α-induced); design: species or system pig; details: 100 μM peptide; porcine uterine strips
Experimental: In ex vivo experiments using porcine uterine strips, the peptides were able to prevent both basal and PGF2α-induced contraction.
Uterine tissues from non-pregnant adult pigs were obtained from a local slaughter house and transported to the laboratory on ice. Uterine myometrial strips of approximately 1 cm in length were set up in organ baths containing Kreb's buffer equilibrated with 21% oxygen at 37° C. as we have described (Potvin, W. et al., 1990, Br. J. Pharmacol. 100:341–347; Varma, D. R. and Chemtob, S., 1993, J. Pharmacol. Expt. Ther. 265:1096–1104). Contractions were recorded by force transducers on Grass-polygraph. Strips were incubated with or without 100 μM peptides for 30 min before adding PGF2α in step-wise increments (10^−9 to 10^−6 M). Data were expressed as percentage increase over the basal level of average tension (g).
A graph of spontaneous uterine contractions (known to be dependent upon prostanoids, mainly PGF2α) in the absence and the presence of 100 μM PCP-8 are shown in FIG. 3A.

[4] = target: T3, human FP receptor (Homo sapiens, UniProt P43088); test: PGF2α-induced phosphoinositide hydrolysis (inositol phosphate synthesis) in HEK293 cells expressing FP receptor; assay type: cell-based; details: peptide at 100 μM; 1 μM PGF2α
T3 construct: expressed in transfected cells
Experimental: Both PCP-8 and -10 were tested in HEK293 cells expressing the human FP receptor. For this purpose, HEK 293 cells stably expressing human FP receptor were plated in 12-well plates in DMEM medium containing 10% fetal bovine serum, penicillin (10 U/ml) and streptomycin (10 μg/ml) and cultured in a humidified atmosphere containing 5% CO2 at 37° C. After the wells were 80% confluent, the cells were labeled with 2 μCi/ml of [^3H]-myo inositol overnight. Next day, the cells were washed once with PBS, and incubated in 0.5 ml of Kreb's buffer containing 10 mM LiCl and indicated concentrations of PCP peptides for 30 min. PGF2α at 1 μM was added to the cells and the incubation was carried out for an additional 30 min. The cells were solubilized with 0.1 N NaOH for 10 min and neutralized with 0.1 N formic acid. The lysates were collected and 1 ml each of methanol and chloroform were sequentially added and vortexed briefly. […]
Briefly, the medium was discarded and the IP3 synthesis was stopped by adding 0.6 ml ice-cold methanol. […] After adding 3 volumes of scintillation cocktail (Optiphase-HiSafe III), the eluates were counted by scintillation spectrophotometry.
Data are expressed as fold stimulation of inositol phosphate synthesis by 1 μM PGF2α compared to the unstimulated controls. […]

[5] = tested on: TP receptor; test: Porcine eyecup model of ex vivo vasomotricity assay, constriction by TxA2 mimetic U46619; design: species or system pig; details: peptide 100 μM; 1 μM U46619 / dose response
Experimental: To prepare eyecups, a circular incision was made 3–4 mm posterior to ora serrata to remove the […] segment and vitreous body with minimal handling of the retina. The remaining eyecup was fixed with pins to a wax base in a 20 ml tissue bath containing 20 ml of Kreb's buffer (pH 7.35–7.45), protease inhibitors, leupetin and aprotinin (10 μg/ml each), and equilibrated with 21% oxygen and 5% carbon dioxide at 37° C. The preparations were allowed to stabilize for 30 min. Peptides at 100 μM were added and incubation was continued for 30 min before the addition of PGF2α.
as §1
The peptide PCP-10 had no effect on the basal tone (diameter of the microvessel) of the vessel (FIG. 2A; left panels). […]

WEDRFYLL [PCP-10, wedrfyll] was tested, and the “effect on vasomotor responses in PGF2α dose response” value ([1]; peptide 100 μM, even at concentrations exceeding 1 μM of PGF2α) was “abrogated the vasomotor responses”, the “effect on PGF2α-mediated vasoconstriction” value ([1]; peptide at 100 μM, 1 μM PGF2α) was “markedly inhibited” and the “effect on basal tone (diameter of the microvessel)” value ([1]; porcine retinal microvessel, no agonist) was “no effect”. The “effect of added PGF2α on the relaxation produced by the peptide” value ([2]; peptide 100 μM, PGF2α up to 10 μM) was “did not affect the relaxation”, the “effect on basal tone (contractile state) of the uterine muscle” value ([2]; peptide at 100 μM, bovine myometrial strips) was “reversed the basal tone” and the “effect on spontaneous (basal) uterine contraction” value [3] was “reduced spontaneous”. For the same sequence, the “inhibition of inositol phosphate synthesis initiated by PGF2α” value [4] was “potently inhibited” and the “effect on vasoconstriction by TxA2 mimetic U46619” value [5] was “no effect”.
